Measured values taken from doi:10.1101/2023.06.10.544440.
No constants are given. Whether binding was seen depends on the method and setting. Binding seen in cells or lysates may run through a third protein. Some binding calls cover weakened binding; strength is not graded here.

The chains behind the UniProt entries cited, without tags or fusion partners. Residues count along the entry.
UniProt Q9DFS6, 34-215: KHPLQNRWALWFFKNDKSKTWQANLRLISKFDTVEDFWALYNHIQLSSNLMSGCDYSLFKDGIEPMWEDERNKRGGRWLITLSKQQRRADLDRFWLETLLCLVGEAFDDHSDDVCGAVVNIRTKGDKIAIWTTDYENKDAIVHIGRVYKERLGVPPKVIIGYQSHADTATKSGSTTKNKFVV
UniProt Q66HY7, 44-224: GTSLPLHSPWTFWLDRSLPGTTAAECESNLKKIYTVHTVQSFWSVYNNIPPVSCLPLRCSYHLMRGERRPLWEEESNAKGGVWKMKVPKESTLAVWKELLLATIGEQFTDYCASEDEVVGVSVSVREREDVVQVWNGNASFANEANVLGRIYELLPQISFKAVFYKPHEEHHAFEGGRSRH
UniProt Q13541, 50-83: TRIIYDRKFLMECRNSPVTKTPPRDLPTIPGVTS
UniProt Q04637, 608-647: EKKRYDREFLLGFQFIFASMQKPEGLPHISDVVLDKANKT

T1: human eIF4E1B (60-242) (human) (UniProt A6NMX2)
T1 sequence: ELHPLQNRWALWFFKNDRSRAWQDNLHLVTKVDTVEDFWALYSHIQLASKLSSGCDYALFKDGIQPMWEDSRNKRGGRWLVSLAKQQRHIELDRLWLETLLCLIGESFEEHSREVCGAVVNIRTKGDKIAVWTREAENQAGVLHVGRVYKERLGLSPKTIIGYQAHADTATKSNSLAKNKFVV

T2: mouse eIF4E1B (63-244) (mouse) (UniProt Q3UTA9)
T2 sequence: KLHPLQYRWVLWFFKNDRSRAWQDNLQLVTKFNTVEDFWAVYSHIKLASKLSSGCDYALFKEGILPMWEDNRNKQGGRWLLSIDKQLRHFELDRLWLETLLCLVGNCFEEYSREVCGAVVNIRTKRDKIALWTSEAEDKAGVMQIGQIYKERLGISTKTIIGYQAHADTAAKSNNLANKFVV

T3: mouse eIF4E1B (63-244) Lys112 to Asn (mouse) (UniProt Q3UTA9)
T3 sequence: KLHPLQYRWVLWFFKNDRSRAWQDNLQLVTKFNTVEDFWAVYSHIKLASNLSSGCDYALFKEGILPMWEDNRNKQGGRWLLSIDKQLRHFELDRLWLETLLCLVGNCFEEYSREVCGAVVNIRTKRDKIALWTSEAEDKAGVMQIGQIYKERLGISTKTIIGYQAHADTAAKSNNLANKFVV

T4: mouse eIF4E1B (63-244) Lys108 to Glu (mouse) (UniProt Q3UTA9)
T4 sequence: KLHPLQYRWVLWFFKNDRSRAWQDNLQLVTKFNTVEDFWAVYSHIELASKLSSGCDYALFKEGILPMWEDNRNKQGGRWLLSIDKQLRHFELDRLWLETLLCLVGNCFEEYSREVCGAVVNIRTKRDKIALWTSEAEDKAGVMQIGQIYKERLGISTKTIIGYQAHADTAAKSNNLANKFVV


Tests used:
Experiment in all cases: pull-down
[1] = molecular target: zebrafish eIF4Ea (34-215) (zebrafish) (UniProt Q9DFS6)
[2] = molecular target: T1, human eIF4E1B (60-242) (human)
[3] = molecular target: T2, mouse eIF4E1B (63-244) (mouse)
[4] = molecular target: zebrafish eIF4E3 (44-224) (zebrafish) (UniProt Q66HY7)
[5] = molecular target: zebrafish eIF4E2 (52-236) (zebrafish)
[6] = molecular target: T3, mouse eIF4E1B (63-244) Lys112 to Asn (mouse)
[7] = molecular target: T4, mouse eIF4E1B (63-244) Lys108 to Glu (mouse)

binding [1] | binding [2] | binding [3] | binding [4] | binding [5] | binding [6] | binding [7] | Molecule
binds | binds | binds |  |  |  |  | eIF4E-binding motif of human eIF4EBP1 (50-83) (from UniProt Q13541 50-83) (domain or fragment)
binds | no binding | no binding | binds | no binding |  |  | eIF4E-binding motif of human eIF4G (608-647) (from UniProt Q04637 608-647) (domain or fragment)
binds | binds | binds |  |  | binds | binds | PHRYTKEELLDIKELPHSKQRPSCLSEKYDSDGVWDP (domain or fragment, UniProt Q9NRA8 27-63) [eIF4E-binding motif of human eIF4ENIF1 (27-63)]
